# Results published in the supplement of paper PMC12819154, “High-throughput peptide-centric local stability assay extends protein–ligand identification to membrane proteins, tissues and bacteria” (Nature Structural & Molecular Biology, 2025).
# The list shows a part of the results. Most entries show no effect beyond the scatter of the controls.
# Compound: CN[C@@H]1C[C@H]2O[C@@](C)([C@@H]1OC)n1c3ccccc3c3c4c(c5c6ccccc6n2c5c31)C(=O)NC4 [staurosporine]
# Experiment: log2 fold change of tryptic peptide abundance, ligand vs vehicle (limited proteolysis) (log2 ratio); higher = more trypsin-susceptible (destabilized)
# Details: ligand concentration: 20 uM; sample: K562 cleared lysate; digestion: 4 min, 22 C (HT-PELSA RT4min, Orbitrap Astral)
row,Target,log2 fold change
1,"HIVEP1 (peptide sequence: SSPAPSENTHISPLK, peptide start residue: 1873) (UniProt P15822)",-0.589
2,"COX5A (peptide sequence: ILEVVKDKAGPHK, peptide start residue: 108) (UniProt P20674)",0.452
3,"APEH (peptide sequence: SFNLSALEK, peptide start residue: 132) (UniProt P13798)",0.313
4,"XRCC1 (peptide sequence: KTPSKPPAQLSPSVPK, peptide start residue: 256) (UniProt P18887)",0.17
5,"PTPN1 (peptide sequence: ILEPHNGK, peptide start residue: 316) (UniProt P18031)",0.326
6,"UniProt P24844 (peptide sequence: ELLTTMGDR, peptide start residue: 125)",-0.103
7,"TBP (peptide sequence: AEIYEAFENIYPILK, peptide start residue: 319) (UniProt P20226)",-0.131
8,"GTF2F2 (peptide sequence: EIGVQNVK, peptide start residue: 219) (UniProt P13984)",0.186
9,"PPP3CB (peptide sequence: EESESVLTLK, peptide start residue: 424) (UniProt P16298)",0.555
10,"LMNB1 (peptide sequence: EQHDAQVR, peptide start residue: 251) (UniProt P20700)",0.318
11,"SPN (peptide sequence: QGSLAMEELK, peptide start residue: 353) (UniProt P16150)",0.0922
12,"FAH (peptide sequence: ASSVVVSGTPIR, peptide start residue: 163) (UniProt P16930)",0.194
13,"TRIM21 (peptide sequence: SVCHVPGLKK, peptide start residue: 271) (UniProt P19474)",0.337
14,"PCMT1 (peptide sequence: SGGASHSELIHNLRK, peptide start residue: 5) (UniProt P22061)",-0.701
15,"ARNT (peptide sequence: QQQQQTELDMVPGR, peptide start residue: 503) (UniProt P27540)",-0.344
16,"CALR (peptide sequence: LKEEEEDKK, peptide start residue: 367) (UniProt P27797)",0.195
17,"RAB6A (peptide sequence: SREDMIDIK, peptide start residue: 184) (UniProt P20340)",-0.0578
18,"UQCRB (peptide sequence: DDTIYEDEDVKEAIR, peptide start residue: 35) (UniProt P14927)",-0.266
19,"ATF2 (peptide sequence: FTNEDHLAVHK, peptide start residue: 36) (UniProt P15336)",0.26
20,"PDE4A (peptide sequence: SLSLSLPGPR, peptide start residue: 11) (UniProt P27815)",0.466
21,"DDX6 (peptide sequence: IKTSDVTSTK, peptide start residue: 85) (UniProt P26196)",0.347
22,"UniProt P21108 (peptide sequence: NCIIVSPDAGGAK, peptide start residue: 164)",0.228
23,"RPS3 (peptide sequence: KPLPDHVSIVEPK, peptide start residue: 202) (UniProt P23396)",0.17
24,"CCNE1 (peptide sequence: GSPLPVLSWANREEVWK, peptide start residue: 102) (UniProt P24864)",-0.377
25,"GADD45A (peptide sequence: YMDQWVPVINLPER, peptide start residue: 152) (UniProt P24522)",-0.191
26,"DNAJB2 (peptide sequence: SPEEVFR, peptide start residue: 98) (UniProt P25686)",-0.253
27,"ZNF8 (peptide sequence: EAPVQDQGYK, peptide start residue: 165) (UniProt P17098)",-0.693
28,"UniProt P17600 (peptide sequence: QASQAGPVPR, peptide start residue: 603)",-0.109
29,"UniProt P17097 (peptide sequence: AFSQSSTLAQHQR, peptide start residue: 370)",0.208
30,"FKBP2 (peptide sequence: KRVDHCPIK, peptide start residue: 37) (UniProt P26885)",0.635

# Looked up above:
# Under log2 fold change, UQCRB (peptide sequence: DDTIYEDEDVKEAIR, peptide start residue: 35) (UniProt P14927) shows -0.266
# Under log2 fold change, ZNF8 (peptide sequence: EAPVQDQGYK, peptide start residue: 165) (UniProt P17098) shows -0.693
